# Reference: publication PMC12431657, “Discovery and mechanistic insights of dibenzoylmethane as a broad spectrum inhibitor of coronavirus” (PLOS Pathogens, 2025)
# Structures can show the parent of a compound that is named as a salt. Where two headings read alike, the source gives them in different places. About 95 (3%) of roughly 3,300 compounds showed an effect of 50% or more. The list shows a part of the results.
# System: HCoV-229E
# Design: species or system Huh-7; HTS, protection from HCoV-229E induced cell death, luminescent cell viability (CellCounting-Lite 2.0), inhibition rate
# Conditions: 24 h post infection, 1 h compound pre-incubation, 10 µM, inhibitor
Structure (SMILES),229E Inhibition rate [%],"229E Inhibition rate (229E Inhibition rate, 24 h) [%]"
C[Se]C[C@H](N)C(=O)O [Se-Methylselenocysteine],9.7,
"O=C(O)[C@@H]1C[C@@H](O)CN1 [L-Hydroxyproline,BioReagent, suitable for cell culture]",14.9,
CC(C)(CO)[C@@H](O)C(=O)NCCC(=O)O [D-Pantothenic acid (hemicalcium salt)],,22.5
C[C@H]1[C@H](C)CC[C@]2(C(=O)O)CC[C@]3(C)C(=CC[C@@H]4[C@@]5(C)CC[C@H](O)C(C)(C)[C@@H]5CC[C@]43C)[C@H]12 [Ursolic acid],17.1,
Oc1cc(O)c2c(c1)O[C@]1(c3ccc(O)c(O)c3)Oc3cc(O)c4c(c3[C@H]2C1O)OC(c1ccc(O)c(O)c1)C(O)C4 (stereo partly shown) [Procyanidin A1],8.3,
NC1(C(=O)O)CC1 [1-Aminocyclopropane-1-carboxylic acid],14,
COc1ccc(-c2cc(=O)c3c(O)c(OC)c(OC)c(OC)c3o2)cc1 [Gardenin B],22.6,
CCCCCCCCCCCCCC1=C(O)C(=O)C=C(O)C1=O [Rapanone],9,
C[C@H](CCC(=O)O)[C@H]1CC[C@H]2[C@@H]3CC[C@@H]4C[C@H](O)CC[C@]4(C)[C@H]3C[C@H](O)[C@]12C [Deoxycholic acid],,6.3
C[C@H](O)C(=O)O [L-Lactic acid],58.1,
CC(=O)c1cccc(O)c1 [3-Hydroxyacetophenone],21.5,
Cc1cc2nc3c(=O)[nH]c(=O)nc-3n(C[C@H](O)[C@H](O)[C@H](O)CO)c2cc1C [Riboflavin],22.6,
C=CCSSCC=C [Diallyl disulfide],13.8,
Nc1ccncc1O [3-Hydroxy-4-aminopyridine],16.7,
O=C1C[C@@H](c2ccc(O)cc2)Oc2cc(O[C@@H]3O[C@H](CO)[C@@H](O)[C@H](O)[C@H]3O)cc(O)c21 [Prunin],10.7,
CCCCC/C=C/C=C/C(=O)NCC(C)C [Pellitorine],14.2,
CC(C)[C@]12O[C@H]1[C@@H]1O[C@]13[C@]1(O[C@H]1C[C@H]1C4=C(CC[C@@]13C)C(=O)OC4)[C@@H]2O [Triptolide],7.2,
OC1OC[C@@H](O[C@@H]2OC[C@@H](O[C@@H]3OC[C@@H](O)[C@H](O)[C@H]3O)[C@H](O)[C@H]2O)[C@H](O)[C@H]1O (stereo partly shown) [Xylotriose],28.5,
O=C(/C=C/c1ccc(O)c2c1[C@H](C(=O)O)[C@@H](c1ccc(O)c(O)c1)O2)O[C@H](Cc1ccc(O)c(O)c1)C(=O)O [Lithospermic acid],26.7,

# For reference, part of the list above.
Structure (SMILES),229E Inhibition rate [%],"229E Inhibition rate (229E Inhibition rate, 24 h) [%]"
C[C@H](CCC(=O)O)[C@H]1CC[C@H]2[C@@H]3CC[C@@H]4C[C@H](O)CC[C@]4(C)[C@H]3C[C@H](O)[C@]12C [Deoxycholic acid],,6.3
C[C@H](O)C(=O)O [L-Lactic acid],58.1,
